Test results as given in PubChem BioAssay AID504444 (National Center for Advancing Translational Sciences (NCATS), 2011).
The whole screen tested about 360,000 compounds, of which about 7,500 (2.1%) were called active. Inconclusive means that the source gave no clear call. Such entries were picked first, then a sample of the others. Calls come from the whole dose curve; as a rule, active = well fitted inhibition curve with a large enough effect; inconclusive = small, poorly fitted or top-dose-only effect, or effect the other way; inactive = flat fitted curve, though single readings scatter. A potency beside an inconclusive call is a rough fit, not a confirmed value.

test: Nrf2 qHTS screen for inhibitors; conditions: A549 ARE-Fluc reporter, luciferase luminescence, 18-24 h; activity change, negative = inhibition: at 46 µM (top of the series); note: nearly all actives have a fitted effect of over 60% in size
Summary of the method: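 Two sequential reads on A549 ARE_Fluc cells exposed to compound for 18-24 h: a CellTiter-Fluor fluorescence read for viability, then a luciferase luminescence read for Nrf2/ARE activity.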
% is set by controls: 0 for no effect and ±100 for the full control effect; potency is the fitted concentration of half-maximal effect.

Row | SMILES | Potency | activity change, negative = inhibition
1 | Cc1cc(C(=O)N/N=C/c2ccc([N+](=O)[O-])s2)c2ccccc2n1 | inconclusive: 18.4 µM [falling, single point] | 
2 | Cc1ccc(S(=O)(=O)N2CCC(Oc3ccc(-n4cnnn4)cc3)CC2)cc1 | inconclusive: 29.1 µM [activator, single point] | 
3 | COc1ccc(CC(=O)Nc2ccc3nc(Nc4cccc(Cl)c4)cc(C)c3c2)cc1OC | active: 16.4 µM | 
4 | Cc1ccc(C(=O)OCC(=O)NCc2ccccc2)cc1S(=O)(=O)N1CCCCC1 | inconclusive: 4.61 µM [falling, partial curve, poor fit] | 
5 | COCCn1c(C)cc(C(=O)CSc2ccc(NC(C)=O)cc2)c1C | inconclusive: 0.326 µM [activator, full curve] | 
6 | CCc1c(C)nc2cc(-c3cccc(Br)c3)[nH]n2c1=O | inconclusive: 1.03 µM [activator, partial curve] | 
7 | COc1ccc(-c2ccc(C3C4C=CCC(C)C4C(=O)N3Cc3ccccc3)c(F)c2)cc1OC (centres undefined) | inconclusive: 29.1 µM [falling, single point] | 
8 | CCOc1ccc(NC(=O)CN2CCCC2c2cccs2)cc1S(=O)(=O)N1CCCCC1 (centres undefined) | inconclusive: 23.1 µM [falling, single point] | 
9 | OCCSc1nc(-c2cccnc2)nc2ccccc12 | inconclusive: 29.1 µM [falling, single point] | 
10 | O=C(c1ccc(Cl)c(S(=O)(=O)NCc2ccccc2)c1)N1CCN(c2ccccn2)CC1 | inconclusive: 20.6 µM [falling, single point] | 
11 | O=C(c1cc(COc2c(F)cccc2F)on1)N1CCCCCC1 | inconclusive: 13 µM [activator, partial curve] | 
12 | Cc1ccc(C(=O)C2=C(O)C(=O)N(Cc3cccnc3)C2c2ccc(Cl)cc2)o1 (centres undefined) | inconclusive: 14.6 µM [activator, partial curve, poor fit] | 
13 | Cc1cccc2cc(CN(Cc3nnnn3Cc3ccco3)C3CCCC3)c3nnnn3c12 |  | inactive: -10.8%
14 | CC(OC(=O)C1CC1)C(=O)Nc1ncc(Cl)cc1Cl (centres undefined) |  | inactive: 20.2%
15 | Cc1csc(NC(=O)CSc2nnc(-c3ccoc3C)n2C(C)c2ccccc2)n1 (centres undefined) | inconclusive: 29.1 µM [falling, single point] | 
16 | COc1ccc(C2=NOC(Cn3nc(C(=O)NCc4ccc5c(c4)OCO5)cc3-c3ccccc3)C2)cc1 (centres undefined) | inconclusive: 10.3 µM [falling, partial curve, poor fit] | 
17 | Cc1ccc(COc2ccsc2C(=O)NN)cc1 | inconclusive: 7.31 µM [activator, partial curve, poor fit] | 
18 | O=C(NC1CCCCC1)C(c1ccccc1F)N(Cc1ccco1)C(=O)Cn1nnc2ccccc21 (centres undefined) |  | inactive: -14.7%
19 | N#CCSc1nccc(/C=C/c2ccccc2)n1 | inconclusive: 20.6 µM [activator, single point] | 
20 | O=C(CNC(=O)c1ccccc1Cl)OCc1cc(=O)n2ccsc2n1 | inconclusive: 25.9 µM [activator, partial curve, poor fit] | 
21 | CC(=O)n1cc([C@@H]2C=C(C(=O)N3CCN(Cc4ccccc4)CC3)O[C@H](OCc3ccc(CO)cc3)C2)c2ccccc21 | inconclusive: 14.6 µM [falling, partial curve, poor fit] | 
22 | Cn1c(SCC(=O)c2ccc(O)c(O)c2)nnc1-c1ccccc1 | inconclusive: 29.1 µM [activator, single point] | 

Row | SMILES | Potency | activity change, negative = inhibition
23 | CC(C)(C)c1ccc(-c2cc(-c3ccccc3O)[nH]n2)cc1 | inconclusive: 29.1 µM [falling, single point] | 
24 | CN1CCN(C(=O)c2cc3nc(-c4ccco4)cc(C(F)(F)F)n3n2)CC1 | inconclusive: 8.2 µM [falling, partial curve] | 
25 | Cc1cccc(Cn2c(SCc3ccc(C(=O)N4CCCCCC4)cc3)nc3ccncc32)c1 | active: 23.1 µM | 
26 | CC(C)Nc1ccc(-n2nc3ccccc3[n+]2[O-])cc1 | inconclusive: 0.82 µM [activator, partial curve] | 
27 | C[N+](C)(C)CCC(=O)N1C/C(=C/c2ccccc2)C(=O)/C(=C\c2ccccc2)C1 |  | inactive: 8.61%
28 | CN(Cc1ccccc1)C(=O)c1ccc(NC(=O)Cc2ccc(NC(=O)C3CCN(C(=O)C4CCCCC4)CC3)cc2)cc1 | inconclusive: 29.1 µM [falling, single point] | 
29 | Cc1cc(C(=O)COC(=O)c2ccc[nH]c2=O)c(C)n1-c1ccccc1F | inconclusive: 16.4 µM [falling, single point] | 
30 | Cc1cc(C)cc(C(=O)N2CC(C)SC2=Nc2cccc(S(=O)(=O)N(C)C)c2)c1 (centres undefined) | inconclusive: 20.6 µM [falling, single point] | 
31 | Cc1ccc(C)c(N(C)C(=O)c2cn(C)c(=O)c3ccccc23)c1 |  | inactive: 0% [at 9.27 µM]
32 | Cn1nccc1C(=O)N1CCc2c([nH]c3ccccc23)C1c1ccc(F)cc1 (centres undefined) | inconclusive: 29.1 µM [activator, single point] | 
33 | CCN(C(=O)Cn1c(C(=O)OC)cc2oc3ccccc3c21)c1cccc(C)c1 | inconclusive: 18.4 µM [falling, single point] | 
34 | Clc1ccc(CO/N=C2\CCCc3nonc32)cc1 | inconclusive: 6.51 µM [activator, full curve] | 
35 | Cc1ccc(CCNC(=O)CCc2cn(Cc3ccccc3C)c3ccccc23)cc1 | inconclusive: 25.9 µM [falling, single point] | 
36 | COc1ccccc1-c1nc(-c2ccc(Br)cc2)no1 | inconclusive: 20.6 µM [activator, partial curve] | 
37 | COc1ccc(O)c(-c2[nH]ncc2C(=O)c2ccccc2)c1 |  | inactive: -0.0589%
38 | CCc1ccc(-c2cnc3ccccc3n2)cc1NC(=O)CNC(=O)c1ccccc1 | inconclusive: 7.31 µM [activator, partial curve] | 
39 | CC1CCc2c(sc3nnn(Cc4ccc(F)cc4)c(=O)c23)C1 (centres undefined) | inconclusive: 20.6 µM [falling, single point] | 
40 | O=C(Nc1ccc2c(c1)CCC2)c1cccc(S(=O)(=O)N2CCN(c3ccc(F)cc3)CC2)c1 | inconclusive: 7.31 µM [falling, partial curve, poor fit] | 
41 | C[C@H](NC(=O)c1ccccc1Cl)C(=O)OCc1cn2cc(Cl)ccc2n1 | inconclusive: 16.4 µM [activator, partial curve, poor fit] | 
42 | Cc1ccccc1NC(=S)NCc1ccc2[nH]c3c(c2c1)CCCC3 | inconclusive: 25.9 µM [falling, single point] | 
43 | CCOc1ccc(/C=C/C(=O)Nc2ccc3[nH]c(=O)[nH]c3c2)cc1 |  | inactive: 9.5%
44 | CCOC(=O)C1(Cc2ccccc2)CCCN(C(=O)C=C(C)C)C1 (centres undefined) | inconclusive: 3.66 µM [activator, full curve, poor fit] | 

Shown in markdown: 15 of the compounds above.

| Row | SMILES | Potency | activity change, negative = inhibition |
| --- | --- | --- | --- |
| 23 | CC(C)(C)c1ccc(-c2cc(-c3ccccc3O)[nH]n2)cc1 | inconclusive: 29.1 µM [falling, single point] |  |
| 25 | Cc1cccc(Cn2c(SCc3ccc(C(=O)N4CCCCCC4)cc3)nc3ccncc32)c1 | active: 23.1 µM |  |
| 26 | CC(C)Nc1ccc(-n2nc3ccccc3[n+]2[O-])cc1 | inconclusive: 0.82 µM [activator, partial curve] |  |
| 28 | CN(Cc1ccccc1)C(=O)c1ccc(NC(=O)Cc2ccc(NC(=O)C3CCN(C(=O)C4CCCCC4)CC3)cc2)cc1 | inconclusive: 29.1 µM [falling, single point] |  |
| 29 | Cc1cc(C(=O)COC(=O)c2ccc[nH]c2=O)c(C)n1-c1ccccc1F | inconclusive: 16.4 µM [falling, single point] |  |
| 32 | Cn1nccc1C(=O)N1CCc2c([nH]c3ccccc23)C1c1ccc(F)cc1 (centres undefined) | inconclusive: 29.1 µM [activator, single point] |  |
| 34 | Clc1ccc(CO/N=C2\CCCc3nonc32)cc1 | inconclusive: 6.51 µM [activator, full curve] |  |
| 35 | Cc1ccc(CCNC(=O)CCc2cn(Cc3ccccc3C)c3ccccc23)cc1 | inconclusive: 25.9 µM [falling, single point] |  |
| 36 | COc1ccccc1-c1nc(-c2ccc(Br)cc2)no1 | inconclusive: 20.6 µM [activator, partial curve] |  |
| 37 | COc1ccc(O)c(-c2[nH]ncc2C(=O)c2ccccc2)c1 |  | inactive: -0.0589% |
| 38 | CCc1ccc(-c2cnc3ccccc3n2)cc1NC(=O)CNC(=O)c1ccccc1 | inconclusive: 7.31 µM [activator, partial curve] |  |
| 39 | CC1CCc2c(sc3nnn(Cc4ccc(F)cc4)c(=O)c23)C1 (centres undefined) | inconclusive: 20.6 µM [falling, single point] |  |
| 40 | O=C(Nc1ccc2c(c1)CCC2)c1cccc(S(=O)(=O)N2CCN(c3ccc(F)cc3)CC2)c1 | inconclusive: 7.31 µM [falling, partial curve, poor fit] |  |
| 42 | Cc1ccccc1NC(=S)NCc1ccc2[nH]c3c(c2c1)CCCC3 | inconclusive: 25.9 µM [falling, single point] |  |
| 44 | CCOC(=O)C1(Cc2ccccc2)CCCN(C(=O)C=C(C)C)C1 (centres undefined) | inconclusive: 3.66 µM [activator, full curve, poor fit] |  |

Continued:

Row | SMILES | Potency | activity change, negative = inhibition
45 | CCCCc1c(O)c2ccccc2[nH]c1=O | inconclusive: 29.1 µM [activator, partial curve, poor fit] | 
46 | COc1ccc(/C=C/c2nnc(NC(=O)CSc3ccc(C)cc3)s2)cc1 | inconclusive: 14.6 µM [falling, single point] | 
47 | Cc1ccc(S(=O)(=O)NCCCNS(=O)(=O)c2ccccc2Br)cc1 | inconclusive: 29.1 µM [falling, single point] | 
48 | Nc1ccc(C(=O)OCCc2ccccc2)cc1 | inconclusive: 20.6 µM [activator, partial curve] | 
49 | CC(C)(C)NC(=O)c1cccc(NC(=O)c2ccc3c(c2)C(=O)N(C(C)(C)C)C3=O)c1 | inconclusive: 20.6 µM [falling, single point] | 
50 | O=C(C=Cc1ccccc1Cl)c1ccccc1 | inconclusive: 29.1 µM [activator, single point] | 
51 | CCn1cc[n+](C)c1P(c1ccccc1)c1ccccc1 | inconclusive: 23.1 µM [falling, single point] | 
52 | COc1ccc(N2CCN(C(=O)CCCNC(=O)Cn3cnc4sc(C)c(C)c4c3=O)CC2)cc1 |  | inactive: -21.2%
53 | Cc1ccc(C(C(=O)NC2CCCCC2)N(C(=O)Cc2c[nH]c3ccccc23)c2ccccc2C)o1 (centres undefined) | inconclusive: 29.1 µM [falling, single point] | 
54 | Cc1nc(N)ncc1-c1ccc2c(c1)OCO2 | inconclusive: 1.84 µM [activator, full curve, poor fit] | 
55 | COc1cc(C(=O)OCc2ccc(C)cc2)cc(NC(=O)c2cccs2)c1OC | inconclusive: 4.61 µM [falling, full curve, poor fit] | 
56 | O=C(NC1=NCCS1)c1ccc(-c2ccc(Cl)cc2)o1 | inconclusive: 1.84 µM [activator, partial curve] | 
57 | Cc1nnc(SCCCN2C(=O)c3ccccc3C2=O)o1 |  | inactive: 3.94%
58 | Cc1cnc(C(=O)NCc2ccc(Cl)cc2Cl)cn1 |  | inactive: -5.5%
59 | COc1cccc(CNC(=O)CCCC(=O)Nc2cccc([N+](=O)[O-])c2)c1 | inconclusive: 0.206 µM [falling, full curve, poor fit] | 
60 | COc1cc(OC)cc(OC(=O)C2CCN(C3=NS(=O)(=O)c4ccccc43)CC2)c1 |  | inactive: 2.42%
61 | Cc1c(Cl)cccc1NC(=O)c1ccc(-n2ccnc2)nc1 | inconclusive: 2.31 µM [falling, full curve, poor fit] | 
62 | CSc1ccc(S(=O)(=O)Nc2ccc(N3CCOCC3)c(Cl)c2)cc1 | inconclusive: 23.1 µM [falling, single point] | 
63 | C=CS(=O)(=O)c1sc(Cl)c(N2CCOCC2)c1[N+](=O)[O-] | inconclusive: 29.1 µM [falling, single point] | 
64 | Cc1ccc(-c2csc(NC(=O)CCNC(=O)c3ccco3)n2)cc1 | inconclusive: 9.2 µM [activator, partial curve, poor fit] | 
